Results from the supplement of paper PMC12823440, “Inhibitors supercharge kinase turnover through native proteolytic circuits” (Nature, 2025).
Structures can show the parent of a compound that is named as a salt. The list shows a part of the results. Hit calls seldom repeat between salt and free forms of one compound.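 In K562 cells expressing nanoluciferase-fused kinases, luminescence was recorded at 4 h intervals between 2 and 18 h, normalized as percent of control with DMSO at 100% and a positive control at 0%. A significant (2 sigma) signal drop marks a time point as decreased. The authors' rule for a hit is not shown and takes in more than the number of time points.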

Chains of the proteins cited; added tags and fusions are not shown. Lines headed by an entry give the natural chain unless they say otherwise; changes in a name come on top.
UniProt Q9UM73: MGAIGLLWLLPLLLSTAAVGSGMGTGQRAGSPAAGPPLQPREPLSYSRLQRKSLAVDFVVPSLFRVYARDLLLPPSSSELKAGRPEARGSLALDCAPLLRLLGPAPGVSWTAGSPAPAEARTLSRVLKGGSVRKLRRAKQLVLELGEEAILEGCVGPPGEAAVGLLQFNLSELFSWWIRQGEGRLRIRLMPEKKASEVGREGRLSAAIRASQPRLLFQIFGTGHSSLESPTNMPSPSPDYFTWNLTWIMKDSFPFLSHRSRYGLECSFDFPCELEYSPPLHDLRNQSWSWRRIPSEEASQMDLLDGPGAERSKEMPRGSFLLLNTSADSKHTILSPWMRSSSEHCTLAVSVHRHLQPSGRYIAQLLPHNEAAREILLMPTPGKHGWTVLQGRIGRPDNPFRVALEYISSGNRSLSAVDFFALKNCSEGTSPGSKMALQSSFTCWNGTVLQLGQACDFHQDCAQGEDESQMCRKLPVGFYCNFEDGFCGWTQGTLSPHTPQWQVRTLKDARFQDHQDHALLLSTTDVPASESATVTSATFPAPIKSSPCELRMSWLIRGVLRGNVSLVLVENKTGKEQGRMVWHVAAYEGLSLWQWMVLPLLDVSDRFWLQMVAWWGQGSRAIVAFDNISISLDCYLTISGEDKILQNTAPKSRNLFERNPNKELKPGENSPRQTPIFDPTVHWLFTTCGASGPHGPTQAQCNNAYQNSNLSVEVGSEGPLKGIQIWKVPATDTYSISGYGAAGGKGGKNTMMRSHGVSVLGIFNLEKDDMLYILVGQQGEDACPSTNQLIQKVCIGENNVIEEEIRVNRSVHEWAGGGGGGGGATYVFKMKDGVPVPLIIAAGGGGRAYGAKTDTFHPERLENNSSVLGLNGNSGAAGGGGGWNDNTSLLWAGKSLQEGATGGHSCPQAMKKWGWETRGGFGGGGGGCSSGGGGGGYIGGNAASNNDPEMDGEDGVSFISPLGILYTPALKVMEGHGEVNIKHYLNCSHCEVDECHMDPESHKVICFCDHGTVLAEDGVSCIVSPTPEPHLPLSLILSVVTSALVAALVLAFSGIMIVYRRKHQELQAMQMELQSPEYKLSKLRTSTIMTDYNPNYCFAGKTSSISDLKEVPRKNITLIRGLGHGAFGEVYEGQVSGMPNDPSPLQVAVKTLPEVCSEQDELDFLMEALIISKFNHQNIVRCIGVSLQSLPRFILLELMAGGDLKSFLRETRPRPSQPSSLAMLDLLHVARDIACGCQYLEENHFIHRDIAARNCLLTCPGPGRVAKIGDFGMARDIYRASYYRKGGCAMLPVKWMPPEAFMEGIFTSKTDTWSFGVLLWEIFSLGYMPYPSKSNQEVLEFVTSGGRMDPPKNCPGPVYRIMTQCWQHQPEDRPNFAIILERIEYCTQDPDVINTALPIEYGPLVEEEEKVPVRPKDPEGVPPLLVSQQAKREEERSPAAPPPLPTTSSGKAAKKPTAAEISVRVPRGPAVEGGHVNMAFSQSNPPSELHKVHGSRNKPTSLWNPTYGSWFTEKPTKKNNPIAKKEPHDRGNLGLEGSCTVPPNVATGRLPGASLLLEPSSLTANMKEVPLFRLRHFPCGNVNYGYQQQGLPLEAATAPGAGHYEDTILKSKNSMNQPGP
UniProt O14965: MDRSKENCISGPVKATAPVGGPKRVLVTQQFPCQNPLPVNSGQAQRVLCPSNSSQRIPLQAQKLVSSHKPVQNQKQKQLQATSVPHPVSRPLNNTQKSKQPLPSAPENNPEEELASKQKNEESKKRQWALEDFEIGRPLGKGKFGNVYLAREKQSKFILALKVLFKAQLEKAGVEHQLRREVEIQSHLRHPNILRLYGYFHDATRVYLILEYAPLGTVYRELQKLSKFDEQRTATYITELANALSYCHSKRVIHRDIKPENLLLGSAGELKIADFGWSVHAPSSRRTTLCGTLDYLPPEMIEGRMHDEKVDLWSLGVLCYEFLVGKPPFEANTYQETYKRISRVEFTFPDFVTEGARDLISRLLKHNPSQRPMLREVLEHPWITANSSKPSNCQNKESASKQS
UniProt Q9UQB9: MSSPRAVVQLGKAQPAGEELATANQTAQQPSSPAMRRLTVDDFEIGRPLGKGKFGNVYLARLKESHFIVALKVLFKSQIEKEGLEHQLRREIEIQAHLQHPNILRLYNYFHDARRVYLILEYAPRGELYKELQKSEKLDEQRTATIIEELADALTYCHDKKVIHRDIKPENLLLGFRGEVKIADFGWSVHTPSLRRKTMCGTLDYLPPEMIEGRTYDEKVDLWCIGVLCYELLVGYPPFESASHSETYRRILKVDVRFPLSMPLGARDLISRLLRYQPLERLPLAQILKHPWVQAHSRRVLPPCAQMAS
UniProt P51451: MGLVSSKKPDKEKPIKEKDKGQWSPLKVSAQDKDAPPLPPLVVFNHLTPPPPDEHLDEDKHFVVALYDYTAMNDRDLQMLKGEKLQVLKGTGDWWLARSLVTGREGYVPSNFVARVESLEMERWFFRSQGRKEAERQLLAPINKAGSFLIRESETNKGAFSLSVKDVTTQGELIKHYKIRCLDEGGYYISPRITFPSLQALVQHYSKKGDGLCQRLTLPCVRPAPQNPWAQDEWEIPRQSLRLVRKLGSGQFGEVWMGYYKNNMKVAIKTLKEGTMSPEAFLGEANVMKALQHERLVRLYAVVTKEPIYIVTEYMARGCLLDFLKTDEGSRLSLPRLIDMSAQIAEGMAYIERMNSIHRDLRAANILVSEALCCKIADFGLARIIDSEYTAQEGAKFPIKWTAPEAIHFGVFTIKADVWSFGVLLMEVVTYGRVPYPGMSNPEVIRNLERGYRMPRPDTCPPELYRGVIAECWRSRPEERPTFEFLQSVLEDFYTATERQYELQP
UniProt P51813: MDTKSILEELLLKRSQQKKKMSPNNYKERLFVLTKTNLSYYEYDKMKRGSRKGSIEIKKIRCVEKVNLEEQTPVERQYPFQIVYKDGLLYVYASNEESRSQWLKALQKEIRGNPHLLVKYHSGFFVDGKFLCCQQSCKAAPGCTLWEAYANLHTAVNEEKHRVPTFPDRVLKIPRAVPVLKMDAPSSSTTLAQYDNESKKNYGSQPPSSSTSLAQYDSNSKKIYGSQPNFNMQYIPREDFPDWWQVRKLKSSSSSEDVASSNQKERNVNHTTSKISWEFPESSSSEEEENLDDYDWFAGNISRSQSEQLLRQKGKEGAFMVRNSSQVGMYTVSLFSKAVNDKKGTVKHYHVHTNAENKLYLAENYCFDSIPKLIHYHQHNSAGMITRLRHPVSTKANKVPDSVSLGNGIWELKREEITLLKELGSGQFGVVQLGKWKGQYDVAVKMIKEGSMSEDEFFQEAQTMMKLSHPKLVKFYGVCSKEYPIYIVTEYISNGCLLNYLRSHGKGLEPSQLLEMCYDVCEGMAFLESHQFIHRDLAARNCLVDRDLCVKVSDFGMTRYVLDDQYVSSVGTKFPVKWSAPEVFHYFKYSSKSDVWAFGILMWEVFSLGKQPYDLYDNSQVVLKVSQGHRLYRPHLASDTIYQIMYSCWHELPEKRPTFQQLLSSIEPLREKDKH
UniProt Q9UQM7, whole entry: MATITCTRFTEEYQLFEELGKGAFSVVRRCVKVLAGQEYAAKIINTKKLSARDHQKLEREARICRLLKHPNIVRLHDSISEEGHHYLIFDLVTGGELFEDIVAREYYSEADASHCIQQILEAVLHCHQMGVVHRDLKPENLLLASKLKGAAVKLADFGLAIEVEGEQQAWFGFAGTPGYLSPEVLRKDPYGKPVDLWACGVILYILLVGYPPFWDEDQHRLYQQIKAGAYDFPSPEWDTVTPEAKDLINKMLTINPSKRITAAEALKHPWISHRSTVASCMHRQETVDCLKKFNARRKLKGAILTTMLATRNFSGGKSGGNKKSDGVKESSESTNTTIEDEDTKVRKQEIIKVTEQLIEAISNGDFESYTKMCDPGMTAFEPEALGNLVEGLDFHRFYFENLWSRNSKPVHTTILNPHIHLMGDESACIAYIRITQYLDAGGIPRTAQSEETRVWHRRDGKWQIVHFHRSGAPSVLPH
UniProt Q15131: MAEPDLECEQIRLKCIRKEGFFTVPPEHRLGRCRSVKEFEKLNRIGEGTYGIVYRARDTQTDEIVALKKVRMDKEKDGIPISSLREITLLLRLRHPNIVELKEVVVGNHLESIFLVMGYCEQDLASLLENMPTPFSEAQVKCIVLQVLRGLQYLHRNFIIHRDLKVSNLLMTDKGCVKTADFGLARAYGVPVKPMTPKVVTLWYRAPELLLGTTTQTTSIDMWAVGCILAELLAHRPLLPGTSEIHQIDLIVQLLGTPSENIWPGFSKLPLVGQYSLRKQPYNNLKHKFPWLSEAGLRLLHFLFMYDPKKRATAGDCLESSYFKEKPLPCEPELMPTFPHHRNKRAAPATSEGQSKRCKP
UniProt Q00526: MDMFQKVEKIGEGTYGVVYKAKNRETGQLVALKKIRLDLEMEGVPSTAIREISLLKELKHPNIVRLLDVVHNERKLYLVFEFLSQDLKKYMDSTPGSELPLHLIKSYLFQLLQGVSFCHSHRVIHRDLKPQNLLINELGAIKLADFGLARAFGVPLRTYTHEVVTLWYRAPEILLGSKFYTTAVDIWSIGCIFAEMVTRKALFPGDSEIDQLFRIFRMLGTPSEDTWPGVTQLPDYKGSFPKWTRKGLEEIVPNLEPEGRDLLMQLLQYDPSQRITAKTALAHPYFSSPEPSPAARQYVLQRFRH
UniProt Q00534, whole entry: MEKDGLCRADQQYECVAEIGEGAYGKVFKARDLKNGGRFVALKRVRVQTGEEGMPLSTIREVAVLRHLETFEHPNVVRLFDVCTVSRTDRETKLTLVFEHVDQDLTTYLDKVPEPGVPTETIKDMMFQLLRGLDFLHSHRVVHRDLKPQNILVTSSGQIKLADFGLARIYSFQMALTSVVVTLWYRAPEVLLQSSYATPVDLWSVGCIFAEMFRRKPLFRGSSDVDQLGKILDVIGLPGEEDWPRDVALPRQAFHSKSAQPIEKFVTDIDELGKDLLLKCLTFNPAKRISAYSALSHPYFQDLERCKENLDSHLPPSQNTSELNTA
UniProt O96017, whole entry: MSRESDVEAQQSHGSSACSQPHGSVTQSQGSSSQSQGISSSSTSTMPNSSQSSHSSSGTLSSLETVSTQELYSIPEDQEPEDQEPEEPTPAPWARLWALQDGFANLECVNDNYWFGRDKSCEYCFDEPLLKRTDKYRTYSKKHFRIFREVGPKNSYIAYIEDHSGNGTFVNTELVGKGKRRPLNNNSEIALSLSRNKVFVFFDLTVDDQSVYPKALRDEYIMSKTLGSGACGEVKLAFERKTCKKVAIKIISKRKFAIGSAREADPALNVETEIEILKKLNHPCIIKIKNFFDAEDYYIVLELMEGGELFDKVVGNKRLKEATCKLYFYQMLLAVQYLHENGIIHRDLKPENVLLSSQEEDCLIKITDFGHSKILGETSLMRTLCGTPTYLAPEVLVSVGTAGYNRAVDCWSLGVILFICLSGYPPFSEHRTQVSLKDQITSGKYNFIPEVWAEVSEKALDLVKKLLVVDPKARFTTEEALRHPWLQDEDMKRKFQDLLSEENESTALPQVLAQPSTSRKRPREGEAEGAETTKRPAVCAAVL
UniProt P07333, whole entry: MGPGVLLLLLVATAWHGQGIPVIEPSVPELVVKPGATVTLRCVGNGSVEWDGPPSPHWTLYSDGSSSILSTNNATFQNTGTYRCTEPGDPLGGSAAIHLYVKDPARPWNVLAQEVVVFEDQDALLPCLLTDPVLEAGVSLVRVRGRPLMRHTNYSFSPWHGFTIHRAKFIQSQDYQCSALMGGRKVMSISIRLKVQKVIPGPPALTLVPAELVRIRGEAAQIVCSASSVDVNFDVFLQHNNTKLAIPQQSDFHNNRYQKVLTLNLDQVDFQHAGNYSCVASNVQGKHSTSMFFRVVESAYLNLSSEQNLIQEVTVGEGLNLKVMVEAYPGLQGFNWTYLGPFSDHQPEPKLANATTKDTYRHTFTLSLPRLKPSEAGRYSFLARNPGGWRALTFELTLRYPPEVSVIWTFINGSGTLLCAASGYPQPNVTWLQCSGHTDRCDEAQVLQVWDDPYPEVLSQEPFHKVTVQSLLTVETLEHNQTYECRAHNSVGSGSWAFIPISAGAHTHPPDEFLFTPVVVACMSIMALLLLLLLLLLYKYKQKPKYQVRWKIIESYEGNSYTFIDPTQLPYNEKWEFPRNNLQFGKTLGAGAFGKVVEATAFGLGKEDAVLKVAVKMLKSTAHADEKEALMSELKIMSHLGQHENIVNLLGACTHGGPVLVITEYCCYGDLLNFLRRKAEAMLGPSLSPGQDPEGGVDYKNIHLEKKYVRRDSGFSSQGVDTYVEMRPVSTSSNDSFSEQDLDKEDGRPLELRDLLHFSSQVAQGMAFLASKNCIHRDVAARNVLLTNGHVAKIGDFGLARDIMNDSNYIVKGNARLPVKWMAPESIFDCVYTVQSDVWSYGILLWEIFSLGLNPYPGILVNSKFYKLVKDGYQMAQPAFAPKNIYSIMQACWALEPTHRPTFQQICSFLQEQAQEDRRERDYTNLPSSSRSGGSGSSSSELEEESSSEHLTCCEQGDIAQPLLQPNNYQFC

How the values were obtained:
Assay in all cases: number of time points (of 5) at which kinase-Nluc abundance scored as decreased, DMSO-normalised (count); higher = more persistent destabilization
Conditions in all cases: K562; 2-18 h
ALK = ALK (UniProt Q9UM73)
ARAF = ARAF (UniProt P10398)
AURKA = AURKA (UniProt O14965)
AURKB = AURKB (UniProt Q96GD4)
AURKC = AURKC (UniProt Q9UQB9)
BLK = BLK (UniProt P51451)
BMX = BMX (UniProt P51813)
BRAF = BRAF (UniProt P15056)
BRAF_V600E = tested on: BRAF_V600E
BTK = BTK (UniProt Q06187)
CAMK2A = CAMK2A (UniProt Q9UQM7)
CAMK2G = CAMK2G (UniProt Q13555)
CDK10 = CDK10 (UniProt Q15131)
CDK2 = CDK2 (UniProt P24941)
CDK3 = CDK3 (UniProt Q00526)
CDK5 = CDK5 (UniProt Q00535)
CDK6 = CDK6 (UniProt Q00534)
CHEK2 = CHEK2 (UniProt O96017)
CSF1R = CSF1R (UniProt P07333)
CSK = CSK (UniProt P41240)

Measured: number of time points

Cn1cc(-c2cc(Oc3cc(F)c(NC(=O)C4(C(=O)Nc5ccccc5)CC4)cc3F)ccn2)cn1 (2.5 µM)
0: all assays above

NC(=O)c1ccc(N(C(N)=O)c2c(F)cccc2F)nc1-c1ccc(F)cc1F (10 µM)
0: all assays above

O=Nc1c(-c2c(O)[nH]c3cc(Br)ccc23)[nH]c2ccccc12 [GSK 3 Inhibitor IX] (2.5 µM)
4: AURKA
0: all other assays above

CN1CCC(CNc2ccc3ncc(-c4cccc(OC(F)(F)F)c4)n3n2)CC1 (2.5 µM)
0: all assays above

Cc1cc(C(=O)Nc2nc3cccc(Cl)c3n2[C@@H]2CCCCN(C(=O)/C=C/CN(C)C)C2)ccn1 [Nazartinib] (10 µM)
0: all assays above

CCn1c(-c2nonc2N)nc2c(C#CC(C)(C)O)ncc(OC[C@H]3CCCNC3)c21 (10 µM)
0: all assays above

C=C1CCC[C@]2(C)C=C3OC(=O)C(C)=C3C[C@@H]12 [Atractylenolide I] (10 µM)
0: all assays above

O=c1c2c([nH]n1-c1nc3ccccc3s1)CCCC2 (10 µM)
0: all assays above

Fc1ccc2[nH]ccc2c1-c1nc(N2CCOCC2)c2sc(CN3CCN(CC4CC4)CC3)cc2n1 (10 µM)
0: all assays above

Cc1c(C)c(NCC(=O)N(C)C2CCN(Cc3ccc(C(N)=O)cc3)CC2)c(C)c(C)c1N (10 µM)
0: all assays above

NS(=O)(=O)c1ccc(Nc2nc(-c3cccc(-c4ccccc4)c3)c3[nH]cnc3n2)cc1 (10 µM)
0: all assays above

CC1=C(C(=O)Nc2cc3cn[nH]c3cc2F)C(c2ccc(C(F)(F)F)cc2)CC(=O)N1 (stereo not given) (10 µM)
0: all assays above

Nc1[nH]nc2nc(-c3ccc(NS(=O)(=O)c4cc(Cl)ccc4Cl)cc3)cnc12 (10 µM)
0: all assays above

2 entries drawn at random from those above:
Nc1[nH]nc2nc(-c3ccc(NS(=O)(=O)c4cc(Cl)ccc4Cl)cc3)cnc12 (10 µM)
0: all assays above

Cc1c(C)c(NCC(=O)N(C)C2CCN(Cc3ccc(C(N)=O)cc3)CC2)c(C)c(C)c1N (10 µM)
0: all assays above

Following part.

COc1c(O)cc2oc(-c3ccc(O)cc3)cc(=O)c2c1O [Hispidulin] (10 µM)
0: all assays above

COc1cc2ncnc(Oc3ccc(CC(=O)Nc4cnn(C(C)C)c4)cc3)c2cc1OC (10 µM)
2: CSF1R
0: all other assays above

O=C1NC(=O)/C(=C\c2c[nH]c(=O)c(-c3ccc(N4CCNCC4)nc3)c2)S1 [Protein kinase inhibitors 1 hydrochloride] (10 µM)
0: all assays above

CC(C)[C@H](CO)Nc1nc(Nc2cccc(Cl)c2)c2ncn(C(C)C)c2n1 [Purvalanol A] (10 µM)
1: CDK6
5: BRAF
0: all other assays above

CCCCCc1ccc(/C=C/[C@H](O)[C@@H](CO)NC)cc1 [SK1-I (hydrochloride)] (10 µM)
0: all assays above

Cc1cccc(-c2[nH]ncc2-c2ccnc3ccccc23)n1 (10 µM)
0: all assays above

Cc1cc(-n2c(=O)ccc3c[nH]c4nccc-4c32)ccc1F (10 µM)
0: all assays above

O=C1CC[C@H](NC(=O)Cc2ccccc2)C(=O)N1 [Antineoplaston A10] (10 µM)
0: all assays above

C#Cc1cccc(Nc2ncnc3cc(OC)c(NC(=O)N4C[C@H]5CCN(C)[C@H]5C4)cc23)c1 [Theliatinib] (10 µM)
0: all assays above

O=C(O)c1cc(N(Cc2ccccc2O)Cc2cc(O)ccc2O)ccc1O [Lavendustin A] (10 µM)
2: ALK | BRAF_V600E
1: CHEK2
0: all other assays above

COCCOc1ccc2c(c1)ncn2-c1ccc2cccc(N3CCC(N)CC3)c2n1 (10 µM)
4: BRAF_V600E
1: BRAF | CAMK2G | CSF1R
2: ALK | BLK | CHEK2
3: AURKA | AURKB | BMX | CDK10
0: all other assays above

CCc1c[nH]c2ncnc(N3CC[C@](N)(CNC(=O)c4ccc(F)cc4F)C3)c12 (10 µM)
0: all assays above

Cc1ccc(NC(=O)Nc2cc(C(F)(F)F)ccc2F)cc1Nc1ccc2c(c1)NC(=O)/C2=C\c1ccc[nH]1 (2.5 µM)
1: CSF1R
0: all other assays above

COc1ccc(S(=O)(=O)Nc2cc(-c3c(O)ccc4ccccc34)c(O)c3ccccc23)cc1 (10 µM)
0: all assays above

Cn1ncc(NC(=O)c2nc(-c3c(F)cccc3F)sc2N)c1N1CC[C@@H](N)[C@H](F)CC1 (10 µM)
0: all assays above

CO[C@H]1C[C@@H]2CC[C@@H](C)[C@@](O)(O2)C(=O)C(=O)N2CCCC[C@H]2C(=O)O[C@H]([C@H](C)C[C@@H]2CC[C@@H](OC(=O)C(C)(CO)CO)[C@H](OC)C2)CC(=O)[C@H](C)/C=C(\C)[C@@H](O)[C@@H](OC)C(=O)[C@H](C)C[C@H](C)/C=C/C=C/C=C/1C [Temsirolimus] (2.5 µM)
0: all assays above

CNC(=O)CNc1cnc2ccc(-c3ccc(OC)c(OC)c3)cc2n1 (10 µM)
0: all assays above

COC(=O)Nc1ccc(-c2nc(N3CCOCC3)c3cnn(C4CCN(Cc5cccnc5)CC4)c3n2)cc1 (10 µM)
0: all assays above

CCN(CC)CCCC(C)Nc1nc(C)cc(Nc2ccc3nc(C)cc(N)c3c2)n1 (stereo not given) (10 µM)
0: all assays above

COC(=O)[C@H](CCSC)NC(=O)c1ccc(NC[C@@H](N)CS)cc1-c1ccccc1 [FTI-277 (hydrochloride)] (10 µM)
0: all assays above

Cc1cccc(/C=N/Nc2cc(N3CCOCC3)n3nc(-c4ccncc4)cc3n2)c1 (10 µM)
2: BMX
0: all other assays above

N#Cc1ccc2ncnc(NCCc3ccccc3)c2c1 [Senexin A] (10 µM)
0: all assays above

CC(C)n1c(=O)n(C)c2cnc3cc(F)c(-c4ccc(OCCCN5CCCCC5)nc4)cc3c21 (10 µM)
0: all assays above

N[C@@H]1CCCN(c2c(/C=C3\SC(=O)NC3=O)cccc2-c2ccccc2)C1 (10 µM)
1: BRAF_V600E
0: all other assays above

C[C@@H](Nc1ncnc2[nH]c(-c3ccc(O)cc3)cc12)c1ccccc1 (2.5 µM)
0: all assays above

COc1cc2ncnc(Nc3ccc(O)c(Br)c3)c2cc1OC (10 µM)
0: all assays above

Nc1nc(NCCNc2ncc(-n3ccnc3)c(-c3ccc(Cl)cc3Cl)n2)ccc1[N+](=O)[O-] (2.5 µM)
4: ALK
2: CHEK2
3: CAMK2G
1: BRAF_V600E
0: all other assays above

COc1cc(-c2cc(OP(=O)(O)O)cc(-c3cc(OC)c(OC)c(OC)c3)c2)cc(OC)c1OC [Stafia-1] (10 µM)
0: all assays above

Cc1cc([C@@H](C)Nc2ccccc2C(=O)O)c2nc(N3CCOCC3)cc(=O)n2c1 (10 µM)
0: all assays above

O=C(Nc1cccc(-c2nc(-c3ccc(NC(=O)c4cccnc4)cc3Cl)no2)c1)Nc1ccc(NC(=O)C2CC2)c(C(F)(F)F)c1 (2.5 µM)
0: all assays above

COc1cc2c(cc1OC)/C(=C/c1ccc(O)cc1)C(=O)N2 (10 µM)
0: all assays above

COC(=O)Nc1ccc(-c2nc(N3CCOCC3)c3cnn(C4CCN(C(=O)OC)CC4)c3n2)cc1 (10 µM)
0: all assays above

COc1ccc2c(Oc3ccc4c(C(=O)Nc5ccccc5N)cccc4c3)ccnc2c1 [Chiauranib] (10 µM)
5: CSF1R
2: BLK
4: AURKB | CDK10
3: ALK
0: all other assays above

C=C1C(=O)[C@@]23[C@H](O)C[C@@H]4C(C)(C)C(=O)CC[C@@]4(C)[C@@H]2CC[C@@H]1[C@H]3O [Glaucocalyxin A] (2.5 µM)
2: BRAF_V600E
1: ALK | BMX
0: all other assays above

O=C(ON=C1c2ccccc2-c2nc3ccccc3nc21)c1ccco1 (2.5 µM)
0: all assays above

C=CC(=O)N1CC[C@@H](Oc2nc(Nc3ccc(N4CCC(N5CCN(C)CC5)CC4)cc3)c(C(N)=O)nc2CC)C1 [Naquotinib (mesylate)] (2.5 µM)
0: all assays above
